Source: paper doi:10.1101/2020.11.17.386763
These are yes or no findings as the source states them, for the method shown. Some results given as binding are weak or reduced against the parent protein; the word gives no strength. Sequences can lack the tags named with a protein.

Molecular target: T1, N-terminally HA-tagged RAE-1γ (mouse) (UniProt O08604)
T1 sequence: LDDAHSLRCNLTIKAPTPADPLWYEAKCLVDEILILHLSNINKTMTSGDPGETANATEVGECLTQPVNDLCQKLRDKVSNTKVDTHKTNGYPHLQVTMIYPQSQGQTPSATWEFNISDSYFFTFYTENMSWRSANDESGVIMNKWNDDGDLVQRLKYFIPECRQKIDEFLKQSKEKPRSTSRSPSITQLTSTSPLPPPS
Experiment: flow cytometry on cells

binding: binds
B1: Recombinant Mouse NKG2D-IgFc Chimera Protein, CF (Fc fusion, UniProt O54709 90-232)
chain: FKETFQPVLCNKEVPVSSREGYCGPCPNNWICHRNNCYQFFNEEKTWNQSQASCLSQNSSLLKIYSKEEQDFLKLVKSYHWMGLVQIPANGSWQWEDGSSLSYNQLTLVEIPKGSCAVYGSSFKAYTEDCANLNTYICMKRAV
